US12076331B2, “Inositol derivatives for use in pathological crystallization” (ETH Zurich, priority 2015, dated 2024)

Test system: RPTEC/TERT 1 human proximal tubule cells
Experiment: RNA sequencing of Ca/P treated RPTEC
Type: cell-based
Conditions: 50 μM, 24 h, fold change ≥ 1.5 and p≤ 0.05
Description: A) Heatmap and hierarchical clustering of relative gene expression levels determined by RNA sequencing. […] Weighted set coverage of gene ontology terms and their respective enrichment score for differentially expressed genes in the Ca/P vs. medium control group is plotted (all FDR≤0.05). D) Normalized count of gene transcripts (FPKM—fragments per kilobase of exon model per million reads mapped) involved in inflammatory responses, ECM composition, cell proliferation and tissue homeostasis of the different treatment groups is plotted (mean+SD, N=3).
Cells were cultured as described in the imaging assay and treated with a medium control (ProxUp basal medium containing 1/1 mM Ca/P), 5/7 mM Ca/P, 5/7 mM Ca/P in medium containing 50 µM (OEG2)2-IP4 or 50 µM (OEG2)2-IP4 in medium for 24 h. Total RNA was extracted using the RNeasy kit (Quiagen) according to the manufacturer's instructions. Three wells per sample group were prepared and total RNA extracted of those 3 wells pooled. mRNA was purified and RNAseq library was prepared using the TrueSeq RNA kit (Illumina). Sequencing was performed on a Novaseq 6000 (Illumina). Reads were aligned to the human reference genome GRCh38.p10 using the STAR tool (https://github.com/alexdobin/STAR) and transcripts quantified using the Kallisto program (42). Ensembl release 91 was used for the gene model definitions. […] The heatmap was plotted using R software. Overrepresentation analysis was performed on Webgestalt.org (v2019) (43), using differentially expressed genes with p≤0.01, log 2fold change ≥ 0.5. Differential expressed genes were compared to the gene ontology—biological process functional database and as a reference set the human genome—protein coding was used. The weighted set cover of the top 30 enriched categories was plotted. For comparison of expression levels of the selected genes, the fragments per kilobase of exon model per million reads mapped (FPKM) were used. Three independent experiments were performed. RNA sequencing raw data is available on the EMBL Nucleotide Sequence Database (ENA) under the accession number PRJEB38397.

For `COCCOCCO[C@@H]1C(OP(=O)(O)O)[C@H](OCCOCCOC)[C@@H](OP(=O)(O)O)C(OP(=O)(O)O)[C@H]1OP(=O)(O)O` (stereo partly shown) [(OEG2)2-IP4], the “differentially expressed genes, (OEG2)2-IP4 only vs. positive ctrl” value was 2935, the “differentially expressed genes, Ca/P+(OEG2)2-IP4 vs. (OEG2)2-IP4 only” value was 77 and the “differentially expressed genes, Ca/P+(OEG2)2-IP4 vs. negative ctrl” value was 76. For the same compound, the “differentially expressed genes, Ca/P+(OEG2)2-IP4 vs. positive ctrl” value was 2437.
